These are yes or no findings as the source states them, for the method shown. In cells and extracts the contact can be indirect. Binding can be weak; no strength is given. Sequences can lack the tags named with a protein.
T1: NHE2-GFP (human) (UniProt Q9UBY0)
T1 sequence: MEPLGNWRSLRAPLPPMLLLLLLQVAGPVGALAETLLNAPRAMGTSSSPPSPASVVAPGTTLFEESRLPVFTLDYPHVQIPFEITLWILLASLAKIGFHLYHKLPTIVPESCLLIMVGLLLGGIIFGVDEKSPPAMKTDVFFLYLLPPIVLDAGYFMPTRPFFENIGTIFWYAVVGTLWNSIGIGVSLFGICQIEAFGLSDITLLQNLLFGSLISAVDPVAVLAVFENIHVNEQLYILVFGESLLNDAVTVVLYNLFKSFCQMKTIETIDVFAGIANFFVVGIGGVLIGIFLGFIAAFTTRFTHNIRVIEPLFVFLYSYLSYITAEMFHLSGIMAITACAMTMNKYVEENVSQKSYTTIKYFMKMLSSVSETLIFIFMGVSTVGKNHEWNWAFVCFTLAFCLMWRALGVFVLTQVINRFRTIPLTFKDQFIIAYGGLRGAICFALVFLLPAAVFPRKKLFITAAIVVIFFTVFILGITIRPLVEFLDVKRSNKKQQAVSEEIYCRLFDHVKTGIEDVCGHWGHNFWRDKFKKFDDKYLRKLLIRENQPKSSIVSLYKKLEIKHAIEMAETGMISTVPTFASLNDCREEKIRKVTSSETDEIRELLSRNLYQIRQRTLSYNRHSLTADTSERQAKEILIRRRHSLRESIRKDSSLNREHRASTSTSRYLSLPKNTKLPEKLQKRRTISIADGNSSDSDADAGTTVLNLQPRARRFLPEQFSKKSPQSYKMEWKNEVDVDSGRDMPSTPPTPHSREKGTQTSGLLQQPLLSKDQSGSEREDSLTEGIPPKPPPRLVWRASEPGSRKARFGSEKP

B1: NHE2-GFP (protein, UniProt Q9UBY0 1-812)
chain: T1 sequence

What was measured:
NHE2-GFP (human) = biological target: T1, NHE2-GFP (human); test: co-IP; HEK293T cells stably expressing the GFP and DsRed fusions; whole cell lysate (50 mM Tris-HCl pH 7.5, 150 mM NaCl, 1% Igepal CA-630); GFP-Trap magnetic beads or anti-RFP (6G6) on Protein A Dynabeads, 4 °C overnight; blots for GFP and DsRed; normal IgG as negative control
cystinosin-DsRed (human) = test: as above

Row | Molecule | binding (NHE2-GFP (human)) | binding (cystinosin-DsRed (human))
1 | cystinosin-DsRed (human) | binds | –
2 | B1 | – | binds
